Measured data: PubChem BioAssay AID1259405 (NCATS, 2018)
Shown is an unselected part of about 50,000 deposited reagents. In the full data, about 4,000 (8%) got an active call. 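Mouse siRNA library applied to hamster cells; one well for each siRNA.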 The numbers tell different reagents against one gene apart.

Test: 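Mouse-designed siRNAs used to find CHO productivity engineering targets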 (primary screen)
System: Chinese hamster CHO-K1 ovary cells with stable secreted eGFP expression
Knock-down reagent: single siRNA against mouse genes, 0.8 pmol siRNA per well (2 µl of 400 nM stock)
Time to read-out: 3 days
Read-out: 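Percent of the per-plate non-targeting control median for intracellular GFP per well by laser scanning cytometry and for cell viability by ATP luminescence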
Direction: GFP, % of control: higher = more GFP per well, higher productivity; viability (ATP), % of control: higher = more viable cells (more ATP)
Active means: 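Called active when intracellular GFP, relative to negative control, is at or above 120%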

Which result is listed for Fdps (farnesyl diphosphate synthetase) #1?
GFP, % of control: 76.3; viability (ATP), % of control: 55.7; activity call: inactive

With Fdps (farnesyl diphosphate synthetase) #2, what does the deposit list?
GFP, % of control: 81; viability (ATP), % of control: 65.7; activity call: inactive

How did the screen score Stx5a (syntaxin 5A) #1?
GFP, % of control: 155; viability (ATP), % of control: 126; activity call: active

For Stx5a (syntaxin 5A) #2, how do the results read?
GFP, % of control: 88.1; viability (ATP), % of control: 82; activity call: inactive

What did the screen give for Nup58 (nucleoporin 58) #1?
GFP, % of control: 74.8; viability (ATP), % of control: 66; activity call: inactive

For Nup58 (nucleoporin 58) #2, what does the deposit list?
GFP, % of control: 72.2; viability (ATP), % of control: 86.9; activity call: inactive

With Nup58 (nucleoporin 58) #3, what does the deposit list?
GFP, % of control: 95.2; viability (ATP), % of control: 45.2; activity call: inactive

What did the screen give for Actr3b (ARP3 actin-related protein 3B) #1?
GFP, % of control: 94.6; viability (ATP), % of control: 81.1; activity call: inactive

With Actr3b (ARP3 actin-related protein 3B) #2, how do the results read?
GFP, % of control: 82.9; viability (ATP), % of control: 107; activity call: inactive

With Idi2 (isopentenyl-diphosphate delta isomerase 2) #1, what was measured?
GFP, % of control: 28.9; viability (ATP), % of control: 14.5; activity call: inactive

How did the screen score Idi2 (isopentenyl-diphosphate delta isomerase 2) #2?
GFP, % of control: 49; viability (ATP), % of control: 79.3; activity call: inactive

For Idi2 (isopentenyl-diphosphate delta isomerase 2) #3, how do the results read?
GFP, % of control: 59.7; viability (ATP), % of control: 67.4; activity call: inactive

How did the screen score Tcl1b4 (T cell leukemia/lymphoma 1B, 4) #1?
GFP, % of control: 106; viability (ATP), % of control: 99.2; activity call: inactive

Which result is listed for Tcl1b4 (T cell leukemia/lymphoma 1B, 4) #2?
GFP, % of control: 70.7; viability (ATP), % of control: 94.8; activity call: inactive

With Tcl1b4 (T cell leukemia/lymphoma 1B, 4) #3, what was measured?
GFP, % of control: 146; viability (ATP), % of control: 106; activity call: active

What did the screen give for Cabp1 (calcium binding protein 1) #1?
GFP, % of control: 86.3; viability (ATP), % of control: 71.2; activity call: inactive

Which result is listed for Cabp1 (calcium binding protein 1) #2?
GFP, % of control: 96.8; viability (ATP), % of control: 64.6; activity call: inactive

With Cabp1 (calcium binding protein 1) #3, what does the deposit list?
GFP, % of control: 83.1; viability (ATP), % of control: 70.5; activity call: inactive

How did the screen score Zfp346 (zinc finger protein 346) #1?
GFP, % of control: 47.1; viability (ATP), % of control: 53.9; activity call: inactive

With Zfp346 (zinc finger protein 346) #2, how do the results read?
GFP, % of control: 96.4; viability (ATP), % of control: 116; activity call: inactive

How did the screen score Zfp346 (zinc finger protein 346) #3?
GFP, % of control: 53.3; viability (ATP), % of control: 63.3; activity call: inactive

Which result is listed for Rad54b (RAD54 homolog B (S. cerevisiae)) #1?
GFP, % of control: 62.1; viability (ATP), % of control: 81.2; activity call: inactive

For Rad54b (RAD54 homolog B (S. cerevisiae)) #2, what does the deposit list?
GFP, % of control: 171; viability (ATP), % of control: 76.6; activity call: active

How did the screen score Rad54b (RAD54 homolog B (S. cerevisiae)) #3?
GFP, % of control: 121; viability (ATP), % of control: 78.3; activity call: active

How did the screen score Rad54b (RAD54 homolog B (S. cerevisiae)) #4?
GFP, % of control: 94.2; viability (ATP), % of control: 70.6; activity call: inactive

What is on record for Rad54b (RAD54 homolog B (S. cerevisiae)) #5?
GFP, % of control: 69.3; viability (ATP), % of control: 74.5; activity call: inactive

With Rad54b (RAD54 homolog B (S. cerevisiae)) #6, how do the results read?
GFP, % of control: 172; viability (ATP), % of control: 96.1; activity call: active

Taken from above.
For “viability (ATP), % of control”, Cabp1 (calcium binding protein 1) #1 reads 71.2
Nup58 (nucleoporin 58) #3, GFP, % of control: 95.2
Entry of Stx5a (syntaxin 5A) #2 in “GFP, % of control”: 88.1
